Experimental data: patent US20260234227A1
Results are given in words; binding and its absence hold for the method and conditions named. Some entries that bind do so weakly or less than the wild type.

Target: T1, vasoactive intestinal peptide (VIP) (human)
T1 sequence (peptide): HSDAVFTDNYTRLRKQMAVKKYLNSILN
Assay: SPR (Biacore), captured antibody, 37.5 nM peptide injected at 37 C, relative response after 15 sec dissociation

B1: anti-PACAP antibody 890C (antibody, human IgG4 S228P, kappa, V domains shown)
VH: EVQLVQSGAEVKKPGSSVKVSCKASGGTFSDVYMHWVRQAPGQGLEWMGLIYPIFADTRYAQKFQGRVTITADESTSTAYMELSSLRSEDTAVYYCAIDQDGSFAYWGQGTLVTVSS
VL: DIVMTQSPDSLAVSLGERATINCKSSQSLLDADGKTYLNWLQQKPGQPPKRLIYWASTRESGVPDRFSGSGSGTDFTLTISSLQAEDVAVYYCWQGTWFDLTFGGGTKVEIKR
binding: binds
